Percent effect of library compounds

Source: ChEMBL document CHEMBL3988442, “University of Dundee, Small-Polar-MMV Screening Library” (2021).

Each number is a percent effect as filed.
The record does not define 0% and 100%; most values in the screen are far below 50% and negative numbers occur (in some assays of this library far below -100).
This is an unselected part of the compounds tested.
Two or more numbers in one place are separate tests of the same structure; such repeats can differ widely.

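Phenotypic screen: M. tuberculosis growth, glucose 7H9 medium, 3 days; the read-out is not stated. Tested at 50 µM. The record gives no direction; compounds that gave an IC50 in retests scored well above the rest, so higher reads as more growth inhibition. About 69,000 compounds were tested under these conditions; 1.1% (about 760) showed 50% or more at least once.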

SMILES,percent effect
O=C(CCn1cc(Cl)cn1)N1CCN(CCOc2ccccc2)CC1,10.07
Cl.O=C(C1CCCCC1)N1CC2(CCNCC2)C1,-25.61
N#Cc1ccccc1CN1CCC2(CC1)CC(c1ccccc1)C(=O)N2 (stereo not shown),-16.25
O=C1NCCCc2c1oc1ccc(O)c(CN3CCOCC3)c21,-58.87
CSCC(=O)N1CCc2c(cnc(C)c2-c2noc(-c3cc[nH]n3)n2)C1,8.23 & -6.625
CC(C)(N)C(=O)N1CCCC(C(=O)c2ccc(C(C)(C)C)cc2)C1 (stereo not shown),17.77
CNc1cncc(C2CCCN2C(=O)CCn2ccnc2C(C)C)n1 (stereo not shown),-4.319
[H][C@@]12CCCO[C@]1([H])[C@@H](Oc1cccnc1)CN2C(=O)C1=CCCC1,13.69
Cc1nn(C)c2c(=O)n(CC(=O)NCCC3=CCCCC3)ccc12,-7.63
Cc1csc2c(N3CCNC(C(=O)N4CCCC4)C3)ncnc12 (stereo not shown),3.723
O=S1(=O)CCC(CNc2cc(-c3ccccc3)nc3ccnn23)C1 (stereo not shown),5.761
CS(=O)(=O)N1CCN(CC(=O)Nc2cccc(Cl)c2)CC1,-5.228 & -3.859
c1cnc(N2CCCC(c3csc(Nc4cnccn4)n3)C2)nc1 (stereo not shown),16.67
COc1ccccc1CNC(Cc1cccs1)c1nc(C)c(C)s1.Cl (stereo not shown),-5.096
CCn1c(C)cc(C(=O)Nc2ccccc2CN(C)C(C)=O)c1C,36.72 & 0.3998
Cc1ccnn1CCC(=O)N1CCC(c2cnccn2)CC1,8.331
O=C(c1cc(C2CCCCN2CCO)n[nH]1)N1CCOCC1.O=CO (stereo not shown),-13.81
O=C(NCCCn1cncn1)NCC(c1ccccc1)N1CCCC1 (stereo not shown),30.21
O=C(c1cc(F)cc2[nH]cnc12)N1CCCC1Cn1cccn1 (stereo not shown),4.891
CCOC(=O)N1CC(=O)N(Cc2ccc(OC)cc2)CC(O)C1 (stereo not shown),-8.13
CC[C@@H]1N(CC2CCC2)CCC[C@]12CCC(=O)N2Cc1ccncc1,-1.597
O=C(c1ccccc1OCC1CC1)N1CCCC(n2ccnc2)C1 (stereo not shown),-12.73
CCCn1[nH]cc/c1=N\C(=O)CN1CCCC1Cn1cc(C)cn1 (stereo not shown),14.02
CS(=O)(=O)c1ccc2c(c1)nc1n2[C@@H](CNCc2cccnc2)COC1,-6.927 & 6.821
Cc1cc(N(C)C)nc(N2CCCC2c2cccnc2)n1 (stereo not shown),0.5075 & 1.659
COCCOCC(=O)Nc1ccc(Br)cc1F,42.32 & 10.06
Cc1cc(C(=O)N2CCCC2)ccc1NCCO,-4.432
O=C(C1CCCO1)N1CCCC2(CCN(c3cccnc3)CC2)C1.O=C(O)C(F)(F)F (stereo not shown),-6.964
CCN1CC[C@]2(CN(C(=O)[C@H]3CCCO3)C[C@H]2c2ccccc2)C1=O,0.1697 & 10.63
CC1=C(CCN2CCCC(O)C2)C(C)(C)CCC1 (stereo not shown),11.1
Cc1ccc(NC(=O)CCc2cnn(C)c2)cc1F,21.18
O=C(c1cc[nH]n1)N1CCCC1C1CCN(Cc2ccccc2)CC1 (stereo not shown),-8.392 & -14.23
CC(C)Nc1nc2c(c(NC3CC3)n1)CN(C(=O)c1ccnnc1)CC2,-4.906 & -27.96
CCc1ccc(C(NCC(N)=O)C(C)(C)C)o1 (stereo not shown),-8.074 & -5.07
CC(C(=O)NCc1ccnc(OCC(F)(F)F)c1)n1cncn1 (stereo not shown),1.104 & -14.78
CC(Nc1ccc(F)cc1)c1nnnn1-c1ccccc1 (stereo not shown),-0.938
Cc1nc2ccccc2n1Cc1cc(C(=O)NC2CCOC2)no1 (stereo not shown),2.686
Cc1noc(C)c1C1CCCN1C(=O)CN1CC2(CCNCC2)OC1=O (stereo not shown),-7.044
Cc1cnc(C)c(N2CCN(Cc3ccc(-c4cc[nH]n4)o3)CC2)n1,50.26
COCCn1cnnc1C(C)NC(=O)c1[nH]c2c(C)cc(C)cc2c1C (stereo not shown),-64.45
Cc1cnc(CN2CCC(N(C)Cc3noc(C4CC4)n3)C2)o1 (stereo not shown),-4.005
Cc1ccccc1-n1ccc2nc(N3CCCC3)ncc2c1=O,-6.199
COc1ccc(Cl)cc1C(=O)NCC1CCN(C(=O)c2ccoc2)CC1,16.44
[H][C@]12CN(C)CCN1C(=O)N(c1ccccc1)C2,-10.83 & -4.258
CCC1CN(CC(=O)Nc2sccc2C#N)CCO1 (stereo not shown),-6.55
CC(=O)N(Cc1ncc(C)o1)C1CCN(Cc2cc(C)on2)C1 (stereo not shown),-3.944
COCC1CN(S(=O)(=O)c2ccc(C)cc2)Cc2c1cnn2C.O=C(O)C(F)(F)F (stereo not shown),4.682 & -28.77
CCCC(=O)N(CCCN1CCOCC1)c1nc2c(C)c(C)ccc2s1.Cl,31.05 & 39.74
CN(Cc1cc2n(n1)CCCNC2)Cc1n[nH]c2c1CCC2,-2.259
Cc1ccc(C)c2c(O)cc(CN[C@H]3CCCCNC3=O)nc12,7.849
O=C(O)[C@@H]1CN(C(=O)c2ccc(Cl)cc2)C[C@H]1c1cccc(F)c1,-11.06
COc1cc(C(=O)N(Cc2ccco2)C2CC2)cc(OC)c1OC,13.35
CCC(=O)N(C)Cc1cccc(OC(C)C)c1,-10.18 & 5.623
CN1CCc2ccc(NCc3cccs3)cc2C1=O,30.18 & 22.73
CCOCc1ncn2c1CN(C(=O)Nc1ccccc1CC)CC2,-26.56
Cc1nc(CN2CCN(C(=O)c3sccc3C3CC3)CC2)cs1,14.24
CCCN(CCC)C(=O)CN1CCCC1C(=O)N(C)C (stereo not shown),-11.38 & 0.6132
CCc1onc(C)c1C(=O)N1CCN(c2ncc3c(n2)CCOC3)CC1.Cl,-16.31
[H][C@@]12CN(C(=O)c3cnccn3)C[C@]1([H])CN(c1cc(OC)ncn1)C2,28.4 & 2.353
O=C(NCc1cc2n(n1)CCCN(Cc1ccc(CO)o1)C2)C1CCC1,5.487
COc1ccc(CNC(C)c2ccc(Cl)cc2)c(OC)c1OC (stereo not shown),24.26
O=C(O)C(F)(F)F.[H][C@@]12CCN(Cc3ccco3)C[C@@]1([H])O[C@H](C(=O)NCC1CCOCC1)C2,-2.692
COc1ccccc1OCC(=O)Nc1ncccc1C,-1.485 & -8.591
[H][C@@]12COC[C@]1(c1nnc(C)o1)CN(Cc1cc(C)on1)C2,-59.55 & -5.146
COc1c(CNC(c2ccc(F)cc2)C(C)(C)C)c(C)nn1C (stereo not shown),-5.13
CN1CCC2(Cc3ccccc3NC2=O)C1 (stereo not shown),17.43
Cc1nc(CNC(=O)c2oc3ccccc3c2CN(C)C)oc1C,49.71
CCn1ccc(NS(=O)(=O)c2cccc(CSC)c2)n1,12.06
CSCC(=O)NCc1cc(Br)ccc1OC(F)F,10.37
Cc1nc(C)n(CC2CCCCN2c2ncnc3ccsc23)n1 (stereo not shown),6.714
CN(C)c1ccccc1CN1CCC(N2CCCC2=O)CC1,-25.45
N#Cc1cc(F)ccc1Cn1cnc(C2CCC2)cc1=O,27.3
CCc1nc(C2CCCN(c3ncccn3)C2)no1 (stereo not shown),9.848
Cc1cc(C)nc(NC(C)Cc2cnccn2)n1 (stereo not shown),17.26 & 27.17
CC(C)S(=O)(=O)NCC1CCCN(C(=O)c2ccc3c(c2)OCCO3)C1 (stereo not shown),18.53 & -0.5069
[H][C@@]12CN(CC3CCOC3)C[C@]1([H])OCCN2c1ncc(F)cn1 (stereo partly shown),-30.4
CC(NC(=O)CCCOc1ccc(F)cc1)c1nnc2n1CCC2 (stereo not shown),-14.96
COc1cc2c(cc1C1CC(=O)NCc3nc(N(C)C)sc31)CCC2 (stereo not shown),-19.38
O=C(c1ccncc1)N1CCN(C(=O)c2coc3ccccc23)CC1,43.98
Cc1nnc2n1CCN(Cc1csc(Cc3ccccc3)n1)C2,37.05
CC(C)[C@@H]1CN(C(=O)c2ccc3c(c2)CCCO3)C[C@H]1NS(C)(=O)=O,14.7
Cc1cnn(CC(C)NCc2ccc(OCc3cscn3)cc2)c1 (stereo not shown),-19.05
O=C(Nc1ccccc1)NC1CCN(C2CCOC2)CC1 (stereo not shown),6.951 & -7.101
COCCCN(C)S(=O)(=O)c1ccc(C(F)(F)F)cc1C#N,-14.9
CN1CCN(C)C2(CCN(Cc3ccsc3)CC2)C1=O.O=C(O)C(F)(F)F,-32.84
CS(=O)(=O)CCSc1n[nH]c(-c2ccc3c(c2)CCC3)n1,0.4687
COc1cc(Br)c(S(=O)(=O)NC(=O)C(C)OC)cc1OC (stereo not shown),4.314 & -29.79
Cc1cccnc1NCCNC(=O)C1CCN(C(=O)N(C)C)CC1,-25.42
CCN(Cc1nc2c(cnn2C)c(=O)[nH]1)c1cc(C)ccc1C,-19.57 & -2.769
COc1cc(C(=O)N(C)Cc2cc(C(=O)O)c(C)o2)cc(OC)c1OC,5.355 & 5.519
CN(Cc1c(Cl)ccc2cccnc12)CC(C)(CO)CO,-23.18 & -8.441
CCC(C)N(CC)C(=O)c1ccc2[nH]nnc2c1 (stereo not shown),-30.08
OC(CN1CCC(c2ccn[nH]2)CC1)c1cccc(C(F)(F)F)c1 (stereo not shown),-2.895 & 1.585
O=C(c1ccc2[nH]nnc2c1)N1CC[C@H](O)[C@]2(CCCO2)C1,-6.104
CC1CN(C)CCN1C(=O)c1cnc2onc(CC(C)(C)C)c2c1 (stereo not shown),10.42

Some entries from above, unchanged:

{"smiles": "Cc1cnn(CC(C)NCc2ccc(OCc3cscn3)cc2)c1", "stereo": "stereo not shown", "percent effect": -19.05}
{"smiles": "CCOCc1ncn2c1CN(C(=O)Nc1ccccc1CC)CC2", "percent effect": -26.56}
{"smiles": "CC[C@@H]1N(CC2CCC2)CCC[C@]12CCC(=O)N2Cc1ccncc1", "percent effect": -1.597}
{"smiles": "c1cnc(N2CCCC(c3csc(Nc4cnccn4)n3)C2)nc1", "stereo": "stereo not shown", "percent effect": 16.67}
{"smiles": "CS(=O)(=O)c1ccc2c(c1)nc1n2[C@@H](CNCc2cccnc2)COC1", "percent effect": "-6.927 & 6.821"}
{"smiles": "O=C(NCCCn1cncn1)NCC(c1ccccc1)N1CCCC1", "stereo": "stereo not shown", "percent effect": 30.21}
{"smiles": "CCc1onc(C)c1C(=O)N1CCN(c2ncc3c(n2)CCOC3)CC1.Cl", "percent effect": -16.31}
{"smiles": "COCCn1cnnc1C(C)NC(=O)c1[nH]c2c(C)cc(C)cc2c1C", "stereo": "stereo not shown", "percent effect": -64.45}
{"smiles": "CCC1CN(CC(=O)Nc2sccc2C#N)CCO1", "stereo": "stereo not shown", "percent effect": -6.55}
{"smiles": "CC(C)Nc1nc2c(c(NC3CC3)n1)CN(C(=O)c1ccnnc1)CC2", "percent effect": "-4.906 & -27.96"}